The list shows a part of the results. Residues, ends and D or L forms follow the SMILES beside them. *: point of attachment. Cbz = O=C(OCc1ccccc1)*
Experiments:
Assay in all cases: log2 fold change, soluble protein after heating vs DMSO (PISA); higher = thermal stabilisation; K562 cells, 10 uM, 30 min; active = over 0.2 and 3.5 SD of the protein, either way, in both replicates (recomputed)
[1] = compound: C#Cc1cccc(Nc2ncnc3cc(OCCOC)c(OCCOC)cc23)c1 [erlotinib]
How it was run: (§1)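 K562 cells (2×10^6 cells/mL) were treated with 10 μM compound for 30 min, and aliquots were heated for 3 min over 48°C-58°C. Pooled aliquots were extracted in PBS with 0.5% NP-40 at 4°C, and the supernatant after 21,000xg for 90 min was measured by TMTpro 16plex LC-MS/MS with channel sums equalised. Reported thermal stability, relative to control samples and from duplicates, is a log2 fold change.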

The chains behind the UniProt entries cited, without tags or fusion partners. Where a name states a change or a piece, a line headed by the entry shows the natural chain unless it says otherwise.
UniProt Q9HCJ1: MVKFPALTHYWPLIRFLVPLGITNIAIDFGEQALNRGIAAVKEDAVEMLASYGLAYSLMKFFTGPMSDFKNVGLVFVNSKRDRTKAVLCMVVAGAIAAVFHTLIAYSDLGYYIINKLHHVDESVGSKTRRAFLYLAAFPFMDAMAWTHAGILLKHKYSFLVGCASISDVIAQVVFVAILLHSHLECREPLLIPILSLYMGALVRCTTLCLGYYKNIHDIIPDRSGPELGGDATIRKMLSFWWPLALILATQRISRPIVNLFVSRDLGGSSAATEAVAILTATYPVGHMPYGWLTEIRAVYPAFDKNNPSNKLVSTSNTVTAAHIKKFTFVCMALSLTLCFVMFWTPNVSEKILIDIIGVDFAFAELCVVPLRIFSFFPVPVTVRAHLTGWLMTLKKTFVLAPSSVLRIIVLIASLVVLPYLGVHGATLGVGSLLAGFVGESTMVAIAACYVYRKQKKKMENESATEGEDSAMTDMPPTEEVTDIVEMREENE
UniProt P05090: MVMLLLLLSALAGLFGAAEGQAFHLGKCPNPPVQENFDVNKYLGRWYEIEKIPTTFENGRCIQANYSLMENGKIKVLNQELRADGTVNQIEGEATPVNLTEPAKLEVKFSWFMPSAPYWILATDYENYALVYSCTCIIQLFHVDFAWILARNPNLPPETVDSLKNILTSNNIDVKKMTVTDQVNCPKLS
UniProt Q9NUS5: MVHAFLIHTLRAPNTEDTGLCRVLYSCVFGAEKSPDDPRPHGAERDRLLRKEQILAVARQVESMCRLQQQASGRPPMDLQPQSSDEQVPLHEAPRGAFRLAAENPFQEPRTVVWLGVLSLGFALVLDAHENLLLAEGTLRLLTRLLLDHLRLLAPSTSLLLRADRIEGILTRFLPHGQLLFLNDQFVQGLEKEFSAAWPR
UniProt Q9H0R1: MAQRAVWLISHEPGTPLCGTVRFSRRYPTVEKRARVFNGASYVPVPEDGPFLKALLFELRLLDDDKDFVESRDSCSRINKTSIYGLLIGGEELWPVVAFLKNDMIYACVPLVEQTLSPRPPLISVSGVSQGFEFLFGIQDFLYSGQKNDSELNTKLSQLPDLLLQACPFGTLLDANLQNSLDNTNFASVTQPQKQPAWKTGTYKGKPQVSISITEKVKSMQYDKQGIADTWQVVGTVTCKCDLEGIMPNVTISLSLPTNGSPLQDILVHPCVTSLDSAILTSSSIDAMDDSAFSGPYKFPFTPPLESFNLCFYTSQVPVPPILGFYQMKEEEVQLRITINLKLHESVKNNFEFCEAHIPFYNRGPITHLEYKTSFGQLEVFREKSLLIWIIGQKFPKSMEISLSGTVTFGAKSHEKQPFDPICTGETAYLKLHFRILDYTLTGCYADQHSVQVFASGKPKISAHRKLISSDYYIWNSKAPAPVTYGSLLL
UniProt Q5T5U3: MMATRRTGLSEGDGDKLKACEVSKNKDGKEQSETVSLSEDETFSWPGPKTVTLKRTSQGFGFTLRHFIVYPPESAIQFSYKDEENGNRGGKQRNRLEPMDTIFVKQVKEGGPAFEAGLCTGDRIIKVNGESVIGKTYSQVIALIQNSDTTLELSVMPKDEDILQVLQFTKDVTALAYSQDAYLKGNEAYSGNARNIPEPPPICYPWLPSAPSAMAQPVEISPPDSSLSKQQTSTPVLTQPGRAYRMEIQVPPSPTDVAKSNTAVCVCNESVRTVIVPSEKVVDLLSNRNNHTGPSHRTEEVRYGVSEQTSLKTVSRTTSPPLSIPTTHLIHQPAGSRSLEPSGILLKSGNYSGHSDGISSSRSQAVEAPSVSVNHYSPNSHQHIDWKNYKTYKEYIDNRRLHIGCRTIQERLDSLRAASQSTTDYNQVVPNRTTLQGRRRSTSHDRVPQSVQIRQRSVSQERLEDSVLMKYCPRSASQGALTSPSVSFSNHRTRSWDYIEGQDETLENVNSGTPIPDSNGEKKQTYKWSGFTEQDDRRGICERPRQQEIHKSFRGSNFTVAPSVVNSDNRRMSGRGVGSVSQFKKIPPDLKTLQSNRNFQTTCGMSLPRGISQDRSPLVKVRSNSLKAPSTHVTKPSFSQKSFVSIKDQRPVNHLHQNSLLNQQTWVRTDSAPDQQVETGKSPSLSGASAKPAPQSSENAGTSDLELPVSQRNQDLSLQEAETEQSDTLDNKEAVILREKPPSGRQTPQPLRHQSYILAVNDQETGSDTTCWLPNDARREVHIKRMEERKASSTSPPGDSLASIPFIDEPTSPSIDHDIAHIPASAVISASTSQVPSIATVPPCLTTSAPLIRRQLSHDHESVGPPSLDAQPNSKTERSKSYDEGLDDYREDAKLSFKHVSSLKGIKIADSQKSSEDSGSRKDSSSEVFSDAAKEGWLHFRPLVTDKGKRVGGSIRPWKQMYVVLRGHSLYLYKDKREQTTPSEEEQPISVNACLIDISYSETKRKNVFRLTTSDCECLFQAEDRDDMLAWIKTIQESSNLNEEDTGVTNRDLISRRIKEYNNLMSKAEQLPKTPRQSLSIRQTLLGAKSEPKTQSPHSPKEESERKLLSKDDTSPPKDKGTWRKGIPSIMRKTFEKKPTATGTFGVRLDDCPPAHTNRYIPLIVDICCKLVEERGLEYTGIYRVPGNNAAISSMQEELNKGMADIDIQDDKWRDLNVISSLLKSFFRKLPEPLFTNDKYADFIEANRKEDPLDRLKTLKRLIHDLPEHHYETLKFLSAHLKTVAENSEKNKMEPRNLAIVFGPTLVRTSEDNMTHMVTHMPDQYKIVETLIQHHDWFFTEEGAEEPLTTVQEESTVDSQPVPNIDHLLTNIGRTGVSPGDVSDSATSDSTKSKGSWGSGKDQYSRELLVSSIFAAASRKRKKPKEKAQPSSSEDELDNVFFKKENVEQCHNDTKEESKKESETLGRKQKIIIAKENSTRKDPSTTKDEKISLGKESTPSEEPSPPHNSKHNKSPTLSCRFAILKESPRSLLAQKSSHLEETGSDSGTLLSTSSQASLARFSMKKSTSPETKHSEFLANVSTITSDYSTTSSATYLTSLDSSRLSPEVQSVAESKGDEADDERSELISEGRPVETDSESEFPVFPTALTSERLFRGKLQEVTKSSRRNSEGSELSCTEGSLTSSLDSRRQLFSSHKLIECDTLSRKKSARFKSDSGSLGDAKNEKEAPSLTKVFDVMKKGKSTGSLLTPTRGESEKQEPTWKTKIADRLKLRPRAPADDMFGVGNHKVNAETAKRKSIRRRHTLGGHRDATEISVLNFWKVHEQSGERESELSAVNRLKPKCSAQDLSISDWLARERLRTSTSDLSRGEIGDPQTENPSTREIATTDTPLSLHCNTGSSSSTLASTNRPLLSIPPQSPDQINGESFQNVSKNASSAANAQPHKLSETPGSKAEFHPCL
UniProt A6QL64: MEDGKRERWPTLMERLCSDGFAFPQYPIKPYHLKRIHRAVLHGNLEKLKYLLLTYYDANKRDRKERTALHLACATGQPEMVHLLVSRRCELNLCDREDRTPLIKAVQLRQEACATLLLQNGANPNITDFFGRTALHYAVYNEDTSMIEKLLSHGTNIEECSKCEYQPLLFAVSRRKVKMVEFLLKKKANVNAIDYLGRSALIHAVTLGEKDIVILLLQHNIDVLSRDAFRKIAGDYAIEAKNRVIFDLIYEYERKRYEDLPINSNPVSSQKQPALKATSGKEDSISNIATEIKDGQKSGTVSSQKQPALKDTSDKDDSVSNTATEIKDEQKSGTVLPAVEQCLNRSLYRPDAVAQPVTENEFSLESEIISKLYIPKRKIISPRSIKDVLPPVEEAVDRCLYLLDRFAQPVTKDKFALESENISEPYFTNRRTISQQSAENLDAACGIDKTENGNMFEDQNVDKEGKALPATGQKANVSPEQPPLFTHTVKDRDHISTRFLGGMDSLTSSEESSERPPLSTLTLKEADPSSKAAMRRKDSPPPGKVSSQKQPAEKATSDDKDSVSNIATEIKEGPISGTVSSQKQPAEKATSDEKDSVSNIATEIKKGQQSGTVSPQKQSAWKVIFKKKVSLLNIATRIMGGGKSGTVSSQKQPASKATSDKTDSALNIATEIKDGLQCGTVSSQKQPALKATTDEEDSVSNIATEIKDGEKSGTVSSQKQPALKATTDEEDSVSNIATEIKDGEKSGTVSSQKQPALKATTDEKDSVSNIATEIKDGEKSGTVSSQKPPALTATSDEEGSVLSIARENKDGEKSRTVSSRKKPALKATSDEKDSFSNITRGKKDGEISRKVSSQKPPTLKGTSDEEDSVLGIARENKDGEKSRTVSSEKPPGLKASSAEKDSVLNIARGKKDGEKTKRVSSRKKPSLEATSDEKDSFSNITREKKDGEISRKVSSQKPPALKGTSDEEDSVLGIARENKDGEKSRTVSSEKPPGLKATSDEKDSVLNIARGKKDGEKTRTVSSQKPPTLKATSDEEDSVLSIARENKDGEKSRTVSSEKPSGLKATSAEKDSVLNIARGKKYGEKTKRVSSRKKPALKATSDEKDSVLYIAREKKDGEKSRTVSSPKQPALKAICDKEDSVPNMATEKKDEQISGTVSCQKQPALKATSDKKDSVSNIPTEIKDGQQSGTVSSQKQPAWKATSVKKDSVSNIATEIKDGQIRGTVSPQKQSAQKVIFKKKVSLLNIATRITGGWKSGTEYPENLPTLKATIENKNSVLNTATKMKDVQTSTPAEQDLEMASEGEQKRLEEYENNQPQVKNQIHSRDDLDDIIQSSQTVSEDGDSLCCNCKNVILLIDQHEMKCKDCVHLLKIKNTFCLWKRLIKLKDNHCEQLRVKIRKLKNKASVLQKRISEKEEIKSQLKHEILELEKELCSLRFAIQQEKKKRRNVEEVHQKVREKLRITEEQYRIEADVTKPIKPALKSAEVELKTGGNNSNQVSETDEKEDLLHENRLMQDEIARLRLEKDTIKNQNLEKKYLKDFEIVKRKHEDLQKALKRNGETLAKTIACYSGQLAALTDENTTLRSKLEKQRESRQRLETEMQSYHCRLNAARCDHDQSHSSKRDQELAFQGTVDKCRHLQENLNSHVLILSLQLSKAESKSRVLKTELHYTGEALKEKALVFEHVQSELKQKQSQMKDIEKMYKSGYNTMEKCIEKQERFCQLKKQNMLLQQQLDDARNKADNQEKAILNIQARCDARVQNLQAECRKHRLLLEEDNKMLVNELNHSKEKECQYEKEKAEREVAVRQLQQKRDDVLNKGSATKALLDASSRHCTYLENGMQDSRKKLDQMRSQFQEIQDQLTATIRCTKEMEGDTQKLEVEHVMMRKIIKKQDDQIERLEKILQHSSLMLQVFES
UniProt P02656: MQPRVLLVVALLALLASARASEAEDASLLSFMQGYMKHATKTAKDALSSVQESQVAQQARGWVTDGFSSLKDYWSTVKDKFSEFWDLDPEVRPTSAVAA
UniProt Q92624: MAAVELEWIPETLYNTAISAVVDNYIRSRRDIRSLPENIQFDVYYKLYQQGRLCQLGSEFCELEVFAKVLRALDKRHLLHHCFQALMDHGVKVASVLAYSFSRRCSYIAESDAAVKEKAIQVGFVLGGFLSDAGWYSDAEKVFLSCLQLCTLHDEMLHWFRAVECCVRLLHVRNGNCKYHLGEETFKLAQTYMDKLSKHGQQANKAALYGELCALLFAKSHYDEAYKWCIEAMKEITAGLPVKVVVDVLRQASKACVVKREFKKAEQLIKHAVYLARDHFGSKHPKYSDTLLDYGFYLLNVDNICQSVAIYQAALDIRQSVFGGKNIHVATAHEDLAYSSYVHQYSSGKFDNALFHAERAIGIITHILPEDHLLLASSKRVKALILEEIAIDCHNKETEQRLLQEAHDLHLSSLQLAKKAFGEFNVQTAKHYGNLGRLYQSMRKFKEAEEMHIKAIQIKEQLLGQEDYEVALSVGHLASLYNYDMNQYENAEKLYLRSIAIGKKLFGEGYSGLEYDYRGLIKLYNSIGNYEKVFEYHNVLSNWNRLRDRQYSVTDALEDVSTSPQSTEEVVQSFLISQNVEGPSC
UniProt Q9UNK9: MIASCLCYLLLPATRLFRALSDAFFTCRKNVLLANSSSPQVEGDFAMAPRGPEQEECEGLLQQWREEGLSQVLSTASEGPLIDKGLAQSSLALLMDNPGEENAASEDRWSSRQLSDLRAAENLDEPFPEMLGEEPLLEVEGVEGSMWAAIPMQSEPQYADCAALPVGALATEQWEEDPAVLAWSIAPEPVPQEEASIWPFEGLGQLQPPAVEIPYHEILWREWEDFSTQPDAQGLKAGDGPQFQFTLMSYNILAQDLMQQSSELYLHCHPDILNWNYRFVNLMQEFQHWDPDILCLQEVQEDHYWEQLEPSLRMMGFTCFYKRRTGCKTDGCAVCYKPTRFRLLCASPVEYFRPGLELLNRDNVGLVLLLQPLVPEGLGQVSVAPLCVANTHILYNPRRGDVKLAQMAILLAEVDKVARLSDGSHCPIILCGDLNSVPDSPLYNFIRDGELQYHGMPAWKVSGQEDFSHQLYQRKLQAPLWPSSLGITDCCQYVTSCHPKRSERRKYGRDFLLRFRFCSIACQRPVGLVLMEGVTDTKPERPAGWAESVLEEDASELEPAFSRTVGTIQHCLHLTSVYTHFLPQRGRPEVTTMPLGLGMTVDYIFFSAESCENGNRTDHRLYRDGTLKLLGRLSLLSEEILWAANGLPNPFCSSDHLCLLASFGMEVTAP

[2] = compound: C/C(=N\NC(=O)C1=CC(=CC=C1)S(=O)(=O)N2CCOCC2)/C3=C(C=CC(=C3)Cl)O
How it was run: as §1

[3] = compound: C1=CC(=C(C=C1Cl)C2=NC3=NC=CN=C3C(=N2)NC4=CC=NC=C4)F
How it was run: as §1

[4] = compound: C1=CC(=CC=C1C2=NC3=C(N2)C=C(C=C3)C(=O)N)OC4=CC=C(C=C4)Cl
How it was run: as §1

[5] = compound: C1=CC2=C(C=CC(=C2)/C=C\3/C(=O)NC(=NCC4=CC=CS4)S3)N=C1
How it was run: as §1

[6] = compound: C1=CC2=NC=CN=C2C=C1/C=C/3\C(=O)NC(=O)S3
How it was run: as §1

[7] = compound: C1=CC=C(C=C1)C2=NC(=C(N2)C3=CC=NC=C3)C4=CC(=C(C=C4)Cl)O
How it was run: as §1

[8] = compound: C1=CC=C2C(=C1)C3=NNC4=CC=CC(=C43)C2=O
How it was run: as §1

[9] = compound: C1CCN(C1)C(=O)NC2=CC=CC(=C2)NC3=NC=C(C(=N3)NCCC4=CN=CN4)Br
How it was run: as §1

[10] = compound: C1CN(CCC1(CC2=CC=C(C=C2)Cl)N)C3=NC=NC4=C3C=CN4
How it was run: as §1

[11] = compound: C1COCCN1CCN2C3=CC=CC=C3N=C2NC(=O)C4=CC(=CC=C4)[N+](=O)[O-] [IRAK-1-4 Inhibitor I]
How it was run: as §1

[12] = compound: C=CC(=O)N1CCC[C@@H](n2nc(-c3ccc(Oc4ccccc4)cc3)c3c(N)ncnc32)C1 [ibrutinib]
How it was run: as §1

[13] = compound: CC(=O)c1cnc2ccc(-c3cc(Cl)c(O)c(Cl)c3)nc2c1N[C@H]1CC[C@H](CN(C)C)CC1
How it was run: as §1

[14] = compound: CC(C)(C)Cn1c(N)nc2ccc(-c3[nH]c(C(C)(C)C)nc3-c3ccc(F)cc3)nc21 [ralimetinib]
How it was run: as §1

[15] = compound: CC(C)(O)CC(=O)NCCn1ccc2ncnc(Nc3ccc(Oc4cccc(C(F)(F)F)c4)c(Cl)c3)c21
How it was run: as §1

[16] = compound: CC(C)C1=C2N=C(C=C(N2N=C1)NCC3=CC=CC=C3)NCCCCCCN
How it was run: as §1

[17] = compound: CC(C)C[C@@H](C=O)NC(=O)[C@H](CC(C)C)NC(=O)[C@H](CC(C)C)NC(=O)OCc1ccccc1
How it was run: as §1

[18] = compound: CC(C)N(C[C@H]1O[C@@H](n2cnc3c(N)ncnc32)[C@H](O)[C@@H]1O)[C@H]1C[C@@H](CCc2nc3cc(C(C)(C)C)ccc3[nH]2)C1 [pinometostat]
How it was run: as §1

[19] = compound: CC1=C(C2=C(C=C1)C(=O)C3=CC=CC=C3N2CCCN)C
How it was run: as §1

[20] = compound: CC1=C(C(CC(=O)N1)C2=CC=C(C=C2)C(F)(F)F)C(=O)NC3=C(C=C4C(=C3)C=NN4)F
How it was run: as §1

Measured: log2 fold change

ANXA5 (UniProt P08758)
inactive: [1] -0.012 | [2] 0.1 | [3] 0.06 | [4] -0.039 | [5] 0.009 | [6] 0.002 | [7] 0.013 | [8] 0.038 | [9] 0.022 | [10] -0.012 | [11] -0.013 | [12] -0.05 | [13] -0.019 | [14] -0.018 | [15] -0.006 | [16] -0.069 | [17] 0.017 | [18] -0.026 | [19] 0.032

ARHGAP5 (UniProt Q13017)
inactive: [1] -0.154 | [3] 0.007 | [4] -0.167 | [6] -0.219 | [7] 0.109 | [9] 0 | [10] -0.253 | [12] 0.069 | [14] 0.17 | [15] -0.056 | [16] 0.169 | [17] -0.075 | [19] -0.17

ANKH (UniProt Q9HCJ1)
inactive: [1] 0.177 | [2] -0.306 | [4] -0.15 | [5] 0.483 | [7] 0.128 | [8] -0.159 | [11] -0.053 | [13] -0.188 | [14] 0 | [16] 0.169 | [17] -0.304 | [18] 0.047 | [20] -0.003

APOD (UniProt P05090)
inactive: [1] 0.207 | [2] -0.003 | [4] -0.477 | [5] 0.037 | [8] -0.361 | [9] -0.12 | [10] 0.045 | [13] -0.08 | [16] 0.077 | [20] -0.562 | [19] 0.513

ARHGAP25 isoform 4 (UniProt P42331)
active: [16] -0.961
inactive: [1] 0.07 | [2] 0.165 | [3] 0.109 | [4] -0.284 | [5] 0.042 | [6] -0.192 | [8] -0.062 | [9] 0.052 | [10] -0.147 | [12] -0.064 | [13] -0.16 | [15] -0.465 | [19] 0.066

AP5S1 (UniProt Q9NUS5)
inactive: [1] -0.008 | [4] 0.109 | [16] -0.162 | [20] -0.332

ARHGAP35 (UniProt Q9NRY4)
inactive: [1] 0.053 | [2] 0.018 | [3] -0.175 | [4] -0.002 | [5] 0.157 | [7] -0.044 | [8] -0.061 | [9] -0.044 | [10] 0.07 | [11] 0.013 | [13] -0.107 | [14] 0.226 | [15] -0.02 | [16] -0.213 | [17] 0.105 | [18] -0.117 | [19] -0.035

AP3M2 (UniProt P53677)
inactive: [1] 0.028 | [4] -0.247 | [6] 0.021 | [11] -0.132 | [12] -0.057 | [16] -0.017 | [18] 0.121

ARAP1 (UniProt Q96P48)
inactive: [3] -0.184 | [6] 0 | [7] 0.013 | [9] -0.14 | [10] -0.622 | [11] -0.214 | [12] -0.132 | [14] 0.225 | [15] 0.034 | [17] 0.159 | [18] 0.324 | [20] 0.072 | [19] 0.039

AP5M1 (UniProt Q9H0R1)
inactive: [3] -0.194 | [6] -0.047 | [7] -0.2 | [11] 0.002 | [12] 0.027 | [14] 0.049 | [15] 0.065 | [17] 0.165 | [18] -0.058 | [20] -0.05

ARHGAP21 (UniProt Q5T5U3)
inactive: [3] -0.236 | [6] -0.283 | [7] -0.221 | [12] 0.117 | [14] 0.162 | [15] 0.148 | [17] 0.129 | [20] 0.089

APLF (UniProt Q8IW19)
inactive: [2] -0.028 | [5] 0.306 | [8] -0.22 | [13] -0.047

AP1B1 isoform 3 (UniProt Q10567)
inactive: [2] 0.028 | [3] 0.263 | [5] 0.016 | [7] 0.076 | [8] -0.005 | [9] -0.07 | [10] 0.042 | [11] -0.001 | [13] 0.021 | [14] 0.097 | [15] -0.108 | [17] 0.125 | [18] -0.014 | [20] 0.022 | [19] 0.051

ANKRD36 (UniProt A6QL64)
inactive: [3] -0.124 | [9] 0.17 | [10] -0.1 | [15] -0.06 | [19] 0.147

APOC3 (UniProt P02656)
inactive: [2] -0.083 | [3] 0.231 | [5] 0.148 | [6] 0.042 | [7] -0.379 | [8] -0.017 | [9] -0.298 | [10] -0.082 | [12] -0.091 | [13] -0.045 | [14] 0.032 | [15] 0.08 | [17] 0.135 | [20] 0.32 | [19] 0.184

Two neighbouring records from above, quoted:
AP1B1 isoform 3 (UniProt Q10567)
inactive: [2] 0.028 | [3] 0.263 | [5] 0.016 | [7] 0.076 | [8] -0.005 | [9] -0.07 | [10] 0.042 | [11] -0.001 | [13] 0.021 | [14] 0.097 | [15] -0.108 | [17] 0.125 | [18] -0.014 | [20] 0.022 | [19] 0.051

ANKRD36 (UniProt A6QL64)
inactive: [3] -0.124 | [9] 0.17 | [10] -0.1 | [15] -0.06 | [19] 0.147

Later entries:

APPBP2 (UniProt Q92624)
inactive: [6] 0.033 | [7] -0.035 | [9] -0.087 | [10] -0.069 | [11] 0.05 | [12] 0.02 | [14] 0.024 | [17] 0.134 | [18] 0.274 | [20] 0.041 | [19] 0.006

ANKRD26 (UniProt Q9UPS8)
inactive: [2] 0.109 | [5] -0.033 | [7] 0.023 | [8] -0.038 | [9] -0.002 | [10] 0.073 | [13] 0.071 | [14] -0.076 | [17] 0.065 | [20] -0.015 | [19] 0.112

APOA4 (UniProt P06727)
inactive: [2] -0.282 | [3] 0.137 | [5] 0.262 | [6] 0.019 | [7] 0.017 | [8] -0.183 | [9] 0.042 | [10] 0.15 | [12] -0.048 | [13] -0.06 | [14] -0.028 | [15] 0.089 | [17] 0.022 | [20] -0.056 | [19] -0.076

ANKS1A (UniProt Q92625)
inactive: [2] -0.316 | [3] -0.016 | [5] 0.215 | [6] 0.123 | [7] 0.028 | [8] 0.136 | [9] -0.082 | [10] -0.097 | [11] -0.147 | [12] -0.149 | [13] 0.112 | [14] 0.288 | [15] -0.074 | [17] 0.153 | [18] 0.298 | [19] 0.239

AREL1 (UniProt O15033)
inactive: [2] 0.072 | [5] 0.019 | [8] 0.031 | [13] 0.031

ANKRD27 (UniProt Q96NW4)
inactive: [7] -0.093 | [11] -0.162 | [14] 0.375 | [17] 0.162 | [18] 0.613

ARID4B (UniProt Q4LE39)
inactive: [9] 0.126 | [10] -0.03 | [19] -0.096

AP2S1 (UniProt M0QZ21)
inactive: [9] -0.625 | [10] 0.21 | [19] 0.139

ANKRD13C (UniProt Q8N6S4)
inactive: [2] -0.277 | [3] -0.076 | [5] -0.088 | [8] 0.166 | [9] -0.022 | [10] -0.142 | [13] -0.144 | [15] 0.119 | [19] 0.173

ANXA2 (UniProt H0YMT9)
inactive: [3] 0.238 | [6] 0.123 | [11] 0.086 | [12] -0.796 | [15] -0.422 | [18] -0.028

APOBEC3B (UniProt Q9UH17)
inactive: [7] -0.05 | [11] -0.068 | [14] 0.069 | [17] 0.124 | [18] 0.186 | [20] 0.088

ANGEL1 (UniProt Q9UNK9)
inactive: [6] 0.161 | [7] -0.107 | [9] -0.149 | [10] 0.092 | [11] -0.042 | [12] 0.062 | [14] 0.332 | [17] 0.207 | [18] -0.019 | [19] 0.074

APOL1 isoform 2 (UniProt O14791)
inactive: [6] -0.152 | [9] -0.153 | [10] 0.314 | [12] 0.163 | [20] -0.065 | [19] -0.258

From the supplement of paper PMC10849652
